According to publication PMC6347605:
No constants are given. Whether binding was seen depends on the method and setting. Binding seen in cells or lysates may run through a third protein. Some entries that bind do so weakly or less than the wild type. For some assays here: Sequences can lack the tags named with a protein.

The chains behind the UniProt entries cited, without tags or fusion partners. Residues count along the entry.
UniProt O00327: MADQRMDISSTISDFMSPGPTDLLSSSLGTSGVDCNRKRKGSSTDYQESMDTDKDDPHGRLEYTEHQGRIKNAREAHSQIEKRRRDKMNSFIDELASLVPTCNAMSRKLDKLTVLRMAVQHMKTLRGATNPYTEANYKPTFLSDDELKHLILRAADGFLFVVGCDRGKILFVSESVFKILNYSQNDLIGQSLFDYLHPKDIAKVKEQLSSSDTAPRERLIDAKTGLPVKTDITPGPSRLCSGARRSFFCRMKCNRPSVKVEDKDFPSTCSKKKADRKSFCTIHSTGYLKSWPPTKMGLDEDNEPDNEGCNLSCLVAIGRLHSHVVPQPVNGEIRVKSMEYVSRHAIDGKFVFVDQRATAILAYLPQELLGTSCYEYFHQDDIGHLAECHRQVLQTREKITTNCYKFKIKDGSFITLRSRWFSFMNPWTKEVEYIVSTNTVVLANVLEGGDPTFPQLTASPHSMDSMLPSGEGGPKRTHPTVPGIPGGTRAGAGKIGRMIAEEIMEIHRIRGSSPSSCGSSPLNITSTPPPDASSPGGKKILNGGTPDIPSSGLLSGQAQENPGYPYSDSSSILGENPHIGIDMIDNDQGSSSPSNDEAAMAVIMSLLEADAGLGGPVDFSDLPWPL
UniProt Q9WTL8: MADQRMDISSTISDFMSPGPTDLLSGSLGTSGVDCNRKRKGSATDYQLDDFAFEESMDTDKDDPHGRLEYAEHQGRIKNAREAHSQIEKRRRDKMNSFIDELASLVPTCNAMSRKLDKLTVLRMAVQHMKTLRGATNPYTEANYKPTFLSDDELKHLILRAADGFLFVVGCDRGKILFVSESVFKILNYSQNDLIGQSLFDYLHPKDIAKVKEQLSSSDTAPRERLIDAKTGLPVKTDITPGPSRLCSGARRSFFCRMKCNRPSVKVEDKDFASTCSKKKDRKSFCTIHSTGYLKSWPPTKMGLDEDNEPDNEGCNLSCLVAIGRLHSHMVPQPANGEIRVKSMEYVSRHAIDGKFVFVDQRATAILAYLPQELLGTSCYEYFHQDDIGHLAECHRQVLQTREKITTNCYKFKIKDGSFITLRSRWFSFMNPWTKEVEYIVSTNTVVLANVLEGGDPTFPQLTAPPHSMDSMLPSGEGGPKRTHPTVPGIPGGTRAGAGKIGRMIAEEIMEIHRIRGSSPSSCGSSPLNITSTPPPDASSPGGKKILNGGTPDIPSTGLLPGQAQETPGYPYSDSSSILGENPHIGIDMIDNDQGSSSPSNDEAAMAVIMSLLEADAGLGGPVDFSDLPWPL
UniProt P52948, residues 1-880: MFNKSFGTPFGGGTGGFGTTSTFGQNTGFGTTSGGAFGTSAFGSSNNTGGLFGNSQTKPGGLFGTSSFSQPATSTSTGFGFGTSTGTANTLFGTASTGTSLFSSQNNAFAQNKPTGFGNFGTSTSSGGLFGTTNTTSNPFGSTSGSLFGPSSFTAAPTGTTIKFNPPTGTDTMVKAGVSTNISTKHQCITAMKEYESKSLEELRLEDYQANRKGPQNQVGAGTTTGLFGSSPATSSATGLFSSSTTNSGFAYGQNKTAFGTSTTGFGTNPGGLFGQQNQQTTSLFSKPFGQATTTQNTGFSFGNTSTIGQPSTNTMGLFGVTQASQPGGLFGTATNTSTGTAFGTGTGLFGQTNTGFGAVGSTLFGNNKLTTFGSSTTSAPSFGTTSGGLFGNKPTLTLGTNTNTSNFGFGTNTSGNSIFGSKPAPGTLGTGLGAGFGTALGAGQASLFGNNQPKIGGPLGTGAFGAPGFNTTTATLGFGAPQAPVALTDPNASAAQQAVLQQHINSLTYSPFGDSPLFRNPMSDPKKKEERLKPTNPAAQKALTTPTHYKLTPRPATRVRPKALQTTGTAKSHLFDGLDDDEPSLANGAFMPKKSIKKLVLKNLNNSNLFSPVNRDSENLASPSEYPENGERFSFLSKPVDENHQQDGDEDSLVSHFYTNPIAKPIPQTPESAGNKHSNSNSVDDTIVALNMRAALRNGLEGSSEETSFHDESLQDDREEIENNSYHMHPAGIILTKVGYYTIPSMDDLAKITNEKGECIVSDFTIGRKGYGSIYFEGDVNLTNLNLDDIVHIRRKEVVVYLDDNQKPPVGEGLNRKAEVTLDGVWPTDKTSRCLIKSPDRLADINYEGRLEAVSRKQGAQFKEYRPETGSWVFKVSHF
UniProt Q6PFD9, residues 1-880: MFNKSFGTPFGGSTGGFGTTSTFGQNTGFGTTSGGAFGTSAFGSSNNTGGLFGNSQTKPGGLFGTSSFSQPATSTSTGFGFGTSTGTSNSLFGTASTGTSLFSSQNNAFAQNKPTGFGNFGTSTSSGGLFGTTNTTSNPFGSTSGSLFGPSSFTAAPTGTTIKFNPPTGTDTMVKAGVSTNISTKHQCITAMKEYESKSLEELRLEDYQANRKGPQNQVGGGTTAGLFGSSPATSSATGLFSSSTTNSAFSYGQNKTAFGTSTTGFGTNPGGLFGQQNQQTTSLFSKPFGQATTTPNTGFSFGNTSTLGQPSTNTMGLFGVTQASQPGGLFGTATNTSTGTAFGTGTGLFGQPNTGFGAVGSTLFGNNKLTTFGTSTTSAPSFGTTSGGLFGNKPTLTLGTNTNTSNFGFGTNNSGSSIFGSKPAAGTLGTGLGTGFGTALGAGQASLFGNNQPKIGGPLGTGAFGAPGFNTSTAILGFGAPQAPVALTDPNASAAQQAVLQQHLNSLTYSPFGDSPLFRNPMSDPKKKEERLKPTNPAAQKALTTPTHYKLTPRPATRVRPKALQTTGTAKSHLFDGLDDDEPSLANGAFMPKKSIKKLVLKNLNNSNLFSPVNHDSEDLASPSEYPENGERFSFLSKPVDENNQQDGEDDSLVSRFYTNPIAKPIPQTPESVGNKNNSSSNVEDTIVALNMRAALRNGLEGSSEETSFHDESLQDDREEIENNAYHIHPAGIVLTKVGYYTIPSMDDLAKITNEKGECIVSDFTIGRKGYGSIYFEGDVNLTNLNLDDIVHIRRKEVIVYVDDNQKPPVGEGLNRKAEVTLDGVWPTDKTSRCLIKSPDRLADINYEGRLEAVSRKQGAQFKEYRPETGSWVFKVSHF

Columns and labels:
CLOCK-FLAG [1] = molecular target: T1, CLOCK-FLAG (UniProt O15516); experiment: co-IP; two-step immunoprecipitation; cells, constructs and antibodies not told
T1 sequence: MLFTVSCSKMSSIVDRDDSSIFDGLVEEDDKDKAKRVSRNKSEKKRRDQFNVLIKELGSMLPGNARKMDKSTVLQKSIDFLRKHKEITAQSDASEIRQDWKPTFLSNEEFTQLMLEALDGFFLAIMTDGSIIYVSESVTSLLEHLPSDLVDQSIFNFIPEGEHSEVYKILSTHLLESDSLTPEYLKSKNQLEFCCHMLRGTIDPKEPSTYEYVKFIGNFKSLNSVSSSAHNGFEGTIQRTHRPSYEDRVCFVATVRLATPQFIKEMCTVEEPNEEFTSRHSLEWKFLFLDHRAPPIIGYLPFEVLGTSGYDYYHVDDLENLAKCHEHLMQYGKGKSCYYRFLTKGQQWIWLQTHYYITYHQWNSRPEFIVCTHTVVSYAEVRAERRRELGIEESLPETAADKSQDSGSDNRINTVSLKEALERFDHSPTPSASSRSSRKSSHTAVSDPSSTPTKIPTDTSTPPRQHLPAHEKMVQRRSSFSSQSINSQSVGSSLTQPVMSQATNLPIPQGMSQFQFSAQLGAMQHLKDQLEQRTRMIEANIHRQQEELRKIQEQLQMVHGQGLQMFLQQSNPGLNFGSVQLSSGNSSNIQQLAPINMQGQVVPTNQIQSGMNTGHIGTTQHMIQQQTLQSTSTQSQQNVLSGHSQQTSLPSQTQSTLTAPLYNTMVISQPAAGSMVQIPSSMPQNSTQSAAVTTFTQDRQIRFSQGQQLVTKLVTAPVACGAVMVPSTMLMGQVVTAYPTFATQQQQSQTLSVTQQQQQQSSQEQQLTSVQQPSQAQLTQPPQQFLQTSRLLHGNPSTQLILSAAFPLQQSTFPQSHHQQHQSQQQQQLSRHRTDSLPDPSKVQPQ

RAE1-HA = molecular target: T2, RAE1-HA (UniProt P78406); experiment: as above
T2 sequence: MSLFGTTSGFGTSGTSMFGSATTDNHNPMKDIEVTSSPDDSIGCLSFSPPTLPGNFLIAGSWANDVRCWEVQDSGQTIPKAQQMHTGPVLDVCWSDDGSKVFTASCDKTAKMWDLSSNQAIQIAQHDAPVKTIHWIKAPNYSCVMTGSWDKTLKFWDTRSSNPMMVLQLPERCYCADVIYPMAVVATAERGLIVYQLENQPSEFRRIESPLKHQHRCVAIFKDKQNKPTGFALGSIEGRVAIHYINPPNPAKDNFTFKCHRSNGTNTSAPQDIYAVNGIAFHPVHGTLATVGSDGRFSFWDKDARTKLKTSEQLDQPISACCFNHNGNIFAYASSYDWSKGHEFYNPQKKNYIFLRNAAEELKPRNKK

BMAL1-FLAG = BMAL1-FLAG (UniProt O00327); experiment: co-IP; CLOCK-FLAG or BMAL1-FLAG coexpressed with RAE1-HA or NUP98-HA in HEK 293T cells; anti-FLAG and anti-HA antibodies for immunoprecipitation and immunoblotting; protein A+G agarose beads
CLOCK-FLAG [2] = molecular target: T1, CLOCK-FLAG; experiment: as above
[3] = molecular target: T3, endogenous CLOCK (NIH3T3) (mouse (endogenous in NIH3T3)) (UniProt O08785); experiment: co-IP; endogenous immunoprecipitation from NIH3T3 cells
T3 sequence: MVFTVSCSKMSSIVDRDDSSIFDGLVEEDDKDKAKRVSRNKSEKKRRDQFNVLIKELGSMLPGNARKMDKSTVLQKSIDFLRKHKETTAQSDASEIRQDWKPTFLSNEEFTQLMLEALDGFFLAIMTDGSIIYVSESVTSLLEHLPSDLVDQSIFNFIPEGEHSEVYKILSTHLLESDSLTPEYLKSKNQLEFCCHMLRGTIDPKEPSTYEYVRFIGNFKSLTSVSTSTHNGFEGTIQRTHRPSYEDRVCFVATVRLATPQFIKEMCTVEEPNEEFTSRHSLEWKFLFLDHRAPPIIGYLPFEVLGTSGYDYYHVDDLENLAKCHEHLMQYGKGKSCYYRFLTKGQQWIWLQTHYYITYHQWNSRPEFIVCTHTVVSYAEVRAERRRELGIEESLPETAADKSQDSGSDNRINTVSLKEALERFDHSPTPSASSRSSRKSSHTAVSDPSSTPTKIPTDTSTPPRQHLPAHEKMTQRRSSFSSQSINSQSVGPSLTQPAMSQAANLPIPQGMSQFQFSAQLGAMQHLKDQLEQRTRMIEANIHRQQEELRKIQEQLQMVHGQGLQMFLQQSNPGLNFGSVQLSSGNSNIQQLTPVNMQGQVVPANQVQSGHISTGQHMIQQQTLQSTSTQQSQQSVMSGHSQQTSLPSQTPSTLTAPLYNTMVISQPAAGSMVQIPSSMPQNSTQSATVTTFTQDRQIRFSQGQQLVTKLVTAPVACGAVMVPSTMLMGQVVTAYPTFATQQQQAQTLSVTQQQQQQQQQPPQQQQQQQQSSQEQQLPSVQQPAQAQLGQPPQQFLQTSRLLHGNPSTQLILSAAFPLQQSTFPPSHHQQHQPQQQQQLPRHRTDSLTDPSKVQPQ

[4] = molecular target: endogenous BMAL1 (NIH3T3) (mouse (endogenous in NIH3T3)) (UniProt Q9WTL8); experiment: co-IP; nuclear lysates of NIH3T3 cells after cytosolic/nuclear fractionation, control and RAE1 or NUP98 knockdown; immunoprecipitated with anti-BMAL1 or anti-CLOCK
CLOCK-FLAG [5] = molecular target: T1, CLOCK-FLAG; experiment: co-IP; two-step immunoprecipitation; cells, constructs and antibodies not told; remark: listed apart in the source
[6] = molecular target: endogenous BMAL1 (NIH3T3) (mouse (endogenous in NIH3T3)) (UniProt Q9WTL8); experiment: co-IP; endogenous immunoprecipitation from NIH3T3 cells

NUP98-HA (from UniProt P52948 1-880)
binding (CLOCK-FLAG [1]): binds
binding (RAE1-HA): binds
binding (BMAL1-FLAG): no binding
binding (CLOCK-FLAG [2]): binds

endogenous NUP98 (NIH3T3) (from UniProt Q6PFD9 1-880)
binding [3]: binds

B1: endogenous CLOCK (NIH3T3) (protein, UniProt O08785 1-855)
chain: MVFTVSCSKMSSIVDRDDSSIFDGLVEEDDKDKAKRVSRNKSEKKRRDQFNVLIKELGSMLPGNARKMDKSTVLQKSIDFLRKHKETTAQSDASEIRQDWKPTFLSNEEFTQLMLEALDGFFLAIMTDGSIIYVSESVTSLLEHLPSDLVDQSIFNFIPEGEHSEVYKILSTHLLESDSLTPEYLKSKNQLEFCCHMLRGTIDPKEPSTYEYVRFIGNFKSLTSVSTSTHNGFEGTIQRTHRPSYEDRVCFVATVRLATPQFIKEMCTVEEPNEEFTSRHSLEWKFLFLDHRAPPIIGYLPFEVLGTSGYDYYHVDDLENLAKCHEHLMQYGKGKSCYYRFLTKGQQWIWLQTHYYITYHQWNSRPEFIVCTHTVVSYAEVRAERRRELGIEESLPETAADKSQDSGSDNRINTVSLKEALERFDHSPTPSASSRSSRKSSHTAVSDPSSTPTKIPTDTSTPPRQHLPAHEKMTQRRSSFSSQSINSQSVGPSLTQPAMSQAANLPIPQGMSQFQFSAQLGAMQHLKDQLEQRTRMIEANIHRQQEELRKIQEQLQMVHGQGLQMFLQQSNPGLNFGSVQLSSGNSNIQQLTPVNMQGQVVPANQVQSGHISTGQHMIQQQTLQSTSTQQSQQSVMSGHSQQTSLPSQTPSTLTAPLYNTMVISQPAAGSMVQIPSSMPQNSTQSATVTTFTQDRQIRFSQGQQLVTKLVTAPVACGAVMVPSTMLMGQVVTAYPTFATQQQQAQTLSVTQQQQQQQQQPPQQQQQQQQSSQEQQLPSVQQPAQAQLGQPPQQFLQTSRLLHGNPSTQLILSAAFPLQQSTFPPSHHQQHQPQQQQQLPRHRTDSLTDPSKVQPQ
binding [4]: binds

B2: RAE1-HA (protein, UniProt P78406 1-368)
chain: MSLFGTTSGFGTSGTSMFGSATTDNHNPMKDIEVTSSPDDSIGCLSFSPPTLPGNFLIAGSWANDVRCWEVQDSGQTIPKAQQMHTGPVLDVCWSDDGSKVFTASCDKTAKMWDLSSNQAIQIAQHDAPVKTIHWIKAPNYSCVMTGSWDKTLKFWDTRSSNPMMVLQLPERCYCADVIYPMAVVATAERGLIVYQLENQPSEFRRIESPLKHQHRCVAIFKDKQNKPTGFALGSIEGRVAIHYINPPNPAKDNFTFKCHRSNGTNTSAPQDIYAVNGIAFHPVHGTLATVGSDGRFSFWDKDARTKLKTSEQLDQPISACCFNHNGNIFAYASSYDWSKGHEFYNPQKKNYIFLRNAAEELKPRNKK
binding (CLOCK-FLAG [5]): binds
binding (BMAL1-FLAG): binds
binding (CLOCK-FLAG [2]): binds

B3: endogenous RAE1 (NIH3T3) (protein, UniProt Q8C570 1-368)
chain: MSLFGSTSGFGTGGTSMFGSTTTDNHNPMKDIEVTSSPDDSIGCLSFSPPTLPGNFLIAGSWANDVRCWEVQDSGQTIPKAQQMHTGPVLDVCWSDDGSKVFTASCDKTAKMWDLNSNQAIQIAQHDAPVKTIHWIKAPNYSCVMTGSWDKTLKFWDTRSSNPMMVLQLPERCYCADVIYPMAVVATAERGLIVYQLENQPSEFRRIESPLKHQHRCVAIFKDKQNKPTGFALGSIEGRVAIHYINPPNPAKDNFTFKCHRSNGTNTSAPQDIYAVNGIAFHPVHGTLATVGSDGRFSFWDKDARTKLKTSEQLDQPIAACCFNHNGNIFAYASSYDWSKGHEFYNPQKKNYIFLRNAAEELKPRNKK
binding [6]: binds
binding [3]: binds
